Earlier results, collected in US6268381A, “Taxane derivatives” (Kabushiki Kaisha Yakult Honsha, priority 1997, dated 2001).

Details: background; cited from earlier work

SMILES: CC(=O)O[C@H]1C(=O)[C@@]2(C)[C@H]([C@H](OC(=O)c3ccccc3)[C@]3(O)C[C@H](OC(=O)[C@H](O)[C@@H](NC(=O)c4ccccc4)c4ccccc4)C(C)=C1C3(C)C)[C@]1(OC(C)=O)CO[C@@H]1C[C@@H]2O [Taxol]
- Solubility in water (in words): sparingly soluble in water
